This passage reports binding results from publication PMC3551969.

Protein sequences, listed by entry. Tags and fused reporters are not part of them.
UniProt P69968: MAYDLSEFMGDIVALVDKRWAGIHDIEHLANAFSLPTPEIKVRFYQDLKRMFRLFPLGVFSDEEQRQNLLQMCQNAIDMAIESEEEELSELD

For one experiment, the target named is TyeA (Y. pestis) (UniProt P69968). Put plainly: two-hybrid.
In another experiment the target is T1, YpCD1.15c (Y. pestis) (UniProt Q9RI22).
T1 sequence: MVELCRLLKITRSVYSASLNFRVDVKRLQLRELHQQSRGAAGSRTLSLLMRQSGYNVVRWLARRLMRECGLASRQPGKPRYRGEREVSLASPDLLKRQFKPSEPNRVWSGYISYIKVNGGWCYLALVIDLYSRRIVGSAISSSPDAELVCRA
Put plainly: two-hybrid.

Results are given in words; binding and its absence hold for the method and conditions named. Binding calls can cover weak binding; strength is not graded here.

Take YpCD1.16c (from UniProt Q7ARJ6): the binding result with TyeA (Y. pestis) and with YpCD1.15c (Y. pestis) was “binds” in each case.
